Data as given in article PMC8257531.

T1: ARL15^A86L (BioID bait) (UniProt Q9NXU5)
T1 sequence: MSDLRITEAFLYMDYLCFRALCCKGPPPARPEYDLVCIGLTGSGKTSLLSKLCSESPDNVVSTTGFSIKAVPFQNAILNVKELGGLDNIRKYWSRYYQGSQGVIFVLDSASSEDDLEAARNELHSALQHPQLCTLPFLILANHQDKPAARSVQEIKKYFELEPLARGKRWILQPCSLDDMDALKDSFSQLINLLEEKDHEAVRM

B1: STT3B (protein, UniProt Q8TCJ2 1-826)
chain: MAEPSAPESKHKSSLNSSPWSGLMALGNSRHGHHGPGAQCAHKAAGGAAPPKPAPAGLSGGLSQPAGWQSLLSFTILFLAWLAGFSSRLFAVIRFESIIHEFDPWFNYRSTHHLASHGFYEFLNWFDERAWYPLGRIVGGTVYPGLMITAGLIHWILNTLNITVHIRDVCVFLAPTFSGLTSISTFLLTRELWNQGAGLLAACFIAIVPGYISRSVAGSFDNEGIAIFALQFTYYLWVKSVKTGSVFWTMCCCLSYFYMVSAWGGYVFIINLIPLHVFVLLLMQRYSKRVYIAYSTFYIVGLILSMQIPFVGFQPIRTSEHMAAAGVFALLQAYAFLQYLRDRLTKQEFQTLFFLGVSLAAGAVFLSVIYLTYTGYIAPWSGRFYSLWDTGYAKIHIPIIASVSEHQPTTWVSFFFDLHILVCTFPAGLWFCIKNINDERVFVALYAISAVYFAGVMVRLMLTLTPVVCMLSAIAFSNVFEHYLGDDMKRENPPVEDSSDEDDKRNQGNLYDKAGKVRKHATEQEKTEEGLGPNIKSIVTMLMLMLLMMFAVHCTWVTSNAYSSPSVVLASYNHDGTRNILDDFREAYFWLRQNTDEHARVMSWWDYGYQIAGMANRTTLVDNNTWNNSHIALVGKAMSSNETAAYKIMRTLDVDYVLVIFGGVIGYSGDDINKFLWMVRIAEGEHPKDIRESDYFTPQGEFRVDKAGSPTLLNCLMYKMSYYRFGEMQLDFRTPPGFDRTRNAEIGNKDIKFKHLEEAFTSEHWLVRIYKVKAPDNRETLDHKPRVTNIFPKQKYLSKKTTKRKRGYIKNKLVFKKGKKISKKTV
B2: SLC26A3 (protein, UniProt P40879 1-764)
chain: MIEPFGNQYIVARPVYSTNAFEENHKKTGRHHKTFLDHLKVCCSCSPQKAKRIVLSLFPIASWLPAYRLKEWLLSDIVSGISTGIVAVLQGLAFALLVDIPPVYGLYASFFPAIIYLFFGTSRHISVGPFPILSMMVGLAVSGAVSKAVPDRNATTLGLPNNSNNSSLLDDERVRVAAAASVTVLSGIIQLAFGILRIGFVVIYLSESLISGFTTAAAVHVLVSQLKFIFQLTVPSHTDPVSIFKVLYSVFSQIEKTNIADLVTALIVLLVVSIVKEINQRFKDKLPVPIPIEFIMTVIAAGVSYGCDFKNRFKVAVVGDMNPGFQPPITPDVETFQNTVGDCFGIAMVAFAVAFSVASVYSLKYDYPLDGNQELIALGLGNIVCGVFRGFAGSTALSRSAVQESTGGKTQIAGLIGAIIVLIVVLAIGFLLAPLQKSVLAALALGNLKGMLMQFAEIGRLWRKDKYDCLIWIMTFIFTIVLGLGLGLAASVAFQLLTIVFRTQFPKCSTLANIGRTNIYKNKKDYYDMYEPEGVKIFRCPSPIYFANIGFFRRKLIDAVGFSPLRILRKRNKALRKIRKLQKQGLLQVTPKGFICTVDTIKDSDEELDNNQIEVLDQPINTTDLPFHIDWNDDLPLNIEVPKISLHSLILDFSAVSFLDVSSVRGLKSILQEFIRIKVDVYIVGTDDDFIEKLNRYEFFDGEVKSSIFFLTIHDAVLHILMKKDYSTSKFNPSQEKDGKIDFTINTNGGLRNRVYEVPVETKF
B3: SLC12A2 (protein, UniProt P55011 1-1212)
chain: MEPRPTAPSSGAPGLAGVGETPSAAALAAARVELPGTAVPSVPEDAAPASRDGGGVRDEGPAAAGDGLGRPLGPTPSQSRFQVDLVSENAGRAAAAAAAAAAAAAAAGAGAGAKQTPADGEASGESEPAKGSEEAKGRFRVNFVDPAASSSAEDSLSDAAGVGVDGPNVSFQNGGDTVLSEGSSLHSGGGGGSGHHQHYYYDTHTNTYYLRTFGHNTMDAVPRIDHYRHTAAQLGEKLLRPSLAELHDELEKEPFEDGFANGEESTPTRDAVVTYTAESKGVVKFGWIKGVLVRCMLNIWGVMLFIRLSWIVGQAGIGLSVLVIMMATVVTTITGLSTSAIATNGFVRGGGAYYLISRSLGPEFGGAIGLIFAFANAVAVAMYVVGFAETVVELLKEHSILMIDEINDIRIIGAITVVILLGISVAGMEWEAKAQIVLLVILLLAIGDFVIGTFIPLESKKPKGFFGYKSEIFNENFGPDFREEETFFSVFAIFFPAATGILAGANISGDLADPQSAIPKGTLLAILITTLVYVGIAVSVGSCVVRDATGNVNDTIVTELTNCTSAACKLNFDFSSCESSPCSYGLMNNFQVMSMVSGFTPLISAGIFSATLSSALASLVSAPKIFQALCKDNIYPAFQMFAKGYGKNNEPLRGYILTFLIALGFILIAELNVIAPIISNFFLASYALINFSVFHASLAKSPGWRPAFKYYNMWISLLGAILCCIVMFVINWWAALLTYVIVLGLYIYVTYKKPDVNWGSSTQALTYLNALQHSIRLSGVEDHVKNFRPQCLVMTGAPNSRPALLHLVHDFTKNVGLMICGHVHMGPRRQAMKEMSIDQAKYQRWLIKNKMKAFYAPVHADDLREGAQYLMQAAGLGRMKPNTLVLGFKKDWLQADMRDVDMYINLFHDAFDIQYGVVVIRLKEGLDISHLQGQEELLSSQEKSPGTKDVVVSVEYSKKSDLDTSKPLSEKPITHKVEEEDGKTATQPLLKKESKGPIVPLNVADQKLLEASTQFQKKQGKNTIDVWWLFDDGGLTLLIPYLLTTKKKWKDCKIRVFIGGKINRIDHDRRAMATLLSKFRIDFSDIMVLGDINTKPKKENIIAFEEIIEPYRLHEDDKEQDIADKMKEDEPWRITDNELELYKTKTYRQIRLNELLKEHSSTANIIVMSLPVARKGAVSSALYMAWLEALSKDLPPILLVRGNHQSVLTFYS
B4: ribophorin I protein (RPN1), endogenous, BioID prey (protein, UniProt P04843 24-607)
chain: ASSEAPPLINEDVKRTVDLSSHLAKVTAEVVLAHLGGGSTSRATSFLLALEPELEARLAHLGVQVKGEDEEENNLEVRETKIKGKSGRFFTVKLPVALDPGAKISVIVETVYTHVLHPYPTQITQSEKQFVVFEGNHYFYSPYPTKTQTMRVKLASRNVESYTKLGNPTRSEDLLDYGPFRDVPAYSQDTFKVHYENNSPFLTITSMTRVIEVSHWGNIAVEENVDLKHTGAVLKGPFSRYDYQRQPDSGISSIRSFKTILPAAAQDVYYRDEIGNVSTSHLLILDDSVEMEIRPRFPLFGGWKTHYIVGYNLPSYEYLYNLGDQYALKMRFVDHVFDEQVIDSLTVKIILPEGAKNIEIDSPYEISRAPDELHYTYLDTFGRPVIVAYKKNLVEQHIQDIVVHYTFNKVLMLQEPLLVVAAFYILFFTVIIYVRLDFSITKDPAAEARMKVACITEQVLTLVNKRIGLYRHFDETVNRYKQSRDISTLNSGKKSLETEHKALTSEIALLQSRLKTEGSDLCDRVSEMQKLDAQVKELVLKSAVEAERLVAGKLKKDTYIENEKLISGKRQELVTKIDHILDAL
B5: LMAN1 (protein, UniProt P49257 31-510)
chain: DGVGGDPAVALPHRRFEYKYSFKGPHLVQSDGTVPFWAHAGNAIPSSDQIRVAPSLKSQRGSVWTKTKAAFENWEVEVTFRVTGRGRIGADGLAIWYAENQGLEGPVFGSADLWNGVGIFFDSFDNDGKKNNPAIVIIGNNGQIHYDHQNDGASQALASCQRDFRNKPYPVRAKITYYQNTLTVMINNGFTPDKNDYEFCAKVENMIIPAQGHFGISAATGGLADDHDVLSFLTFQLTEPGKEPPTPDKEISEKEKEKYQEEFEHFQQELDKKKEEFQKGHPDLQGQPAEEIFESVGDRELRQVFEGQNRIHLEIKQLNRQLDMILDEQRRYVSSLTEEISKRGAGMPGQHGQITQQELDTVVKTQHEILRQVNEMKNSMSETVRLVSGMQHPGSAGGVYETTQHFIDIKEHLHIVKRDIDNLVQRNMPSNEKPKCPELPPFPSCLSTVHFIIFVVVQTVLFIGYIMYRSQQEAAAKKFF
B6: STT3A (protein, UniProt P46977 1-705)
chain: MTKFGFLRLSYEKQDTLLKLLILSMAAVLSFSTRLFAVLRFESVIHEFDPYFNYRTTRFLAEEGFYKFHNWFDDRAWYPLGRIIGGTIYPGLMITSAAIYHVLHFFHITIDIRNVCVFLAPLFSSFTTIVTYHLTKELKDAGAGLLAAAMIAVVPGYISRSVAGSYDNEGIAIFCMLLTYYMWIKAVKTGSICWAAKCALAYFYMVSSWGGYVFLINLIPLHVLVLMLTGRFSHRIYVAYCTVYCLGTILSMQISFVGFQPVLSSEHMAAFGVFGLCQIHAFVDYLRSKLNPQQFEVLFRSVISLVGFVLLTVGALLMLTGKISPWTGRFYSLLDPSYAKNNIPIIASVSEHQPTTWSSYYFDLQLLVFMFPVGLYYCFSNLSDARIFIIMYGVTSMYFSAVMVRLMLVLAPVMCILSGIGVSQVLSTYMKNLDISRPDKKSKKQQDSTYPIKNEVASGMILVMAFFLITYTFHSTWVTSEAYSSPSIVLSARGGDGSRIIFDDFREAYYWLRHNTPEDAKVMSWWDYGYQITAMANRTILVDNNTWNNTHISRVGQAMASTEEKAYEIMRELDVSYVLVIFGGLTGYSSDDINKFLWMVRIGGSTDTGKHIKENDYYTPTGEFRVDREGSPVLLNCLMYKMCYYRFGQVYTEAKRPPGFDRVRNAEIGNKDFELDVLEEAYTTEHWLVRIYKVKDLDNRGLSRT

target: T1, ARL15^A86L (BioID bait); test: proximity labelling; BioID; cleared lysates of ARL15^A86L expressing Flp-In T-REx HeLa cells on streptavidin beads, on-bead trypsin digestion, mass spectrometry; SAINT AvgP >= 0.95

binding, binds:
B1, B2, B3, B4, B5, B6

These are yes or no findings as the source states them, for the method shown. Binding seen in cells or lysates may run through a third protein. A yes stands for co-enrichment or nearness to the bait. Other partners may have been found.
